{"source": "paper PMC6662706", "about": "(Scientific Reports, 2019)", "note": "Plain letter strings leave the end groups untold. Some peptides are written in HELM: one residue between dots, names in brackets for other building blocks, links after the first $.", "data": [{"assay": "general procedure: Fmoc solid-phase peptide synthesis; Rink Amide MBHA resin (0.4 mmol/g); HCTU/NMM", "details": "whole synthesis, analytical C18 RP-HPLC (Vydac), scale of the general procedure 0.1 mmol", "units": {"final HPLC purity": "%"}, "values": [{"substance": "PEPTIDE1{L.G.R.L.S.Q.E.L.H.R.L.Q.T.Y.[am]}$$$$V2.0", "final HPLC purity": 98}, {"substance": "PEPTIDE1{S.Q.E.L.H.R.L.Q.T.Y.P.R.[am]}$$$$V2.0", "final HPLC purity": 96}, {"substance": "LQTYPRTNTGSN", "final HPLC purity": 95}]}]}
